# No constants are given. Whether binding was seen depends on the method and setting. Binding seen in cells or lysates may run through a third protein. Some results given as binding are weak or reduced against the parent protein; the word gives no strength.
# T1: Leucocyte elastase inhibitor (LEI), endogenous in HeLa cells (human (endogenous in HeLa)) (UniProt P30740)
# T1 sequence: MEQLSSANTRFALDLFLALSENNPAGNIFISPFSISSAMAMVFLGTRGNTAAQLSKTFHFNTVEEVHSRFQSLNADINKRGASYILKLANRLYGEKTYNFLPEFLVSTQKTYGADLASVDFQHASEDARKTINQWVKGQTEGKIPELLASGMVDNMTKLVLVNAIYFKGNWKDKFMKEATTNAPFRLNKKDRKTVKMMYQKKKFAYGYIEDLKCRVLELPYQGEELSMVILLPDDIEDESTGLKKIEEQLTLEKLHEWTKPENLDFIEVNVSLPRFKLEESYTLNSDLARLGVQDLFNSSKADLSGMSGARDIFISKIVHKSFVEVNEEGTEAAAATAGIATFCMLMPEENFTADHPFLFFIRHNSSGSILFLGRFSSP
# T2: Protein kinase C (PKC) zeta, endogenous in HeLa cells (human (endogenous in HeLa)) (UniProt Q05513)
# T2 sequence: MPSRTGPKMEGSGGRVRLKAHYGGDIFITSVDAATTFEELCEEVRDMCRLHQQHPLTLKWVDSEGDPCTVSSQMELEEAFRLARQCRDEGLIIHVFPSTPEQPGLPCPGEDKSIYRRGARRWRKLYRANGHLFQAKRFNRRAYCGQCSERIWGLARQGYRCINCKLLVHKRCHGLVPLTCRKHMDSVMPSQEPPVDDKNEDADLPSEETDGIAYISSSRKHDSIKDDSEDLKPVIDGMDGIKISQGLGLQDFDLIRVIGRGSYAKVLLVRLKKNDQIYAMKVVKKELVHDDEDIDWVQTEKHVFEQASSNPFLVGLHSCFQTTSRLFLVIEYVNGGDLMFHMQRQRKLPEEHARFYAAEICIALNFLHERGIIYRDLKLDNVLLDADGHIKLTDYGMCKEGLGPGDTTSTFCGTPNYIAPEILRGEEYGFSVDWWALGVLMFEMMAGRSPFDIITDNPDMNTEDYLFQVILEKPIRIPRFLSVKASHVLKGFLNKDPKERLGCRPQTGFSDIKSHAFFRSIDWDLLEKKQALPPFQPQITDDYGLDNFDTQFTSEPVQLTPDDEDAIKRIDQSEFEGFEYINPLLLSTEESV
# B1: Protein kinase C (PKC) zeta, endogenous in HeLa cells (enzyme, UniProt Q05513 1-592)
# chain: T2 sequence
# B2: Leucocyte elastase inhibitor (LEI), endogenous in HeLa cells (protein, UniProt P30740 1-379)
# chain: T1 sequence
# Columns and labels:
# [1] = molecular target: T1, Leucocyte elastase inhibitor (LEI), endogenous in HeLa cells (human (endogenous in HeLa)); assay: co-IP; ProFound Mammalian Co-Immunoprecipitation Kit; crude extracts of HeLa (100 ug) and BHK cells precipitated with anti-PKC zeta or anti-LEI; blots with anti-PKC zeta or anti-LEI; column without IgG as control
# [2] = molecular target: T2, Protein kinase C (PKC) zeta, endogenous in HeLa cells (human (endogenous in HeLa)); assay: as above
Binder,binding [1],binding [2]
B1,binds,
B2,,binds
